Results on 103 sequences are retold here after PubChem BioAssay AID1347423 (Functional Genomics Laboratory (NCATS/FGL), 2020).

About 210 (0.4%) of roughly 52,000 sequences were called active.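 The calls were made as follows: active = gene whose silencing raises cell survival under the drug, median off-target-corrected z-score across its silencing RNAs 2 or more; inactive = the rest.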 Some of the results follow.

A short description of this experiment: Resistance to Poly (ADP-Ribose) Polymerase inhibitor: Gene Identification via Genome-wide siRNA Screen. The note with it: mouse BRCA2 R2336H ES cells, olaparib, CellTiter-Glo viability; active compounds read high. Summed up: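 Genome-wide siRNA screen (3 siRNAs/gene, 20 nM) in mouse ES cells carrying hypomorphic BRCA2 R2336H; olaparib 500 nM added 48 h post-transfection, CellTiter-Glo viability 72 h later. Normalized to plate-median negative control; MAD z-scores, gene median, seed-adjusted.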
On the technique in general: In ATP-based viability assays light output follows the ATP content of the culture.
As for GGAAAAAAGAGAGGUCAGATT against Meox1, the z-score is inactive: -0.177.
The figure for GCUAGAAGCUCUUCAGAAATT against Zcwcc1 is inactive: -1.31; for GGUGCUUCACAGAAUGUGUTT against Olfr784 it is inactive: -0.446.
The figure for GUAAGGUCACCGGGUUGCATT against Lor is inactive: -0.57; for GCUAUAUCAGCAGAAUGGCTT against Spag4l it is inactive: 0.176.
Regarding GCAAAAGGUUAAACUGAUATT against Fbxl14, the z-score is inactive: -0.302.
The figure for GCUAUCCUCAAAAUUCCUUTT against Olfr412 is inactive: -0.325; for GGUUCUACCUUUCAUGAGUTT against LOC432615 it is inactive: 0.283; for GGAUAAAGCCACAUUUGGUTT against Apoh it is inactive: -0.39.
The same measure for GGCUUUAGUUCUUUUGUAATT against Mmd: inactive: 2.18; for GGUGGGCAUCUGACAACAUTT against Set: inactive: 2.51; for GCUACUUUAGUGGUUUCACTT against Ets1: inactive: 0.319.
The same measure for GGUGCACACCAAUGUUCUGTT against Efemp2: inactive: -0.0535.
As to CGAAGGUACUAUGUAUUUUTT against Tbce, the z-score was inactive: -1.41.
The figure for “GUCCAUACUUUGGUUUUCCTT against D630024D12Rik” is inactive: 1.52; for CCAUCAUGACGGUUCCCUATT against Mrgpra5 it is inactive: -1.4; for GGGAGAGUGUUUGUUCAUUTT against Dusp1 it is inactive: -0.188.
For GCUUAUGUCGAAUGAUAGCTT against Idb2, the z-score was inactive: 0.794.
The figure for GGGCCUGAUUUCCUAUGCUTT against Pglyrp4 is inactive: 0.548.
Consider GGACAUAGUAUACGAAAAUTT against Znf341, for which the z-score was inactive: 0.632.
“GGGUGAAAUAUUCUAUUCATT against A230078I01Rik”: the z-score was inactive: 0.376.
For CCAGACUUGGGUGAAUGAATT against Olfr450, the z-score is inactive: -0.94.
The figure for GGAAGCCAUUAUACAUGACTT against Uvrag1 is inactive: -0.513; for “CGUGAGACCCUCAAGCUUGTT against 1700012H17Rik” it is inactive: 0.815.
The figure for CCUGCCUUUGUAAAAGCCGTT against Bid is inactive: -0.0202; for GCAAACUAGAUAUCUAGGGTT against Lmx1a it is inactive: -0.579.
The figure for GGUUCCUAGUUACAACAUCTT against Pcdhga12 is inactive: 1.21; for GCGUAUUACACCCUUGGAATT against Terf1 it is inactive: 0.0138.
CCUGUGAGGCCAUUGAUUCTT against Lpd: the z-score was inactive: -0.359.
The same measure for CCAAAACCUCAUGCUGAAATT against BC021442: inactive: 1.83.
The figure for GCAGCACAUAGAAACGUGUTT against Fnbp1 is inactive: 2.48.
Regarding “GGGCUAGCCUAGAUAAAAATT against 5730555F13Rik”, the z-score is inactive: -1.57.
The same measure for GCCUAAGAGUUUCAAUAAGTT against Tgtp: inactive: 0.07; for GGCAUCUCCAUCAAUACAGTT against Pdcl: inactive: -0.472; for CGGAAAUCAACAUUGCGUUTT against Stxbp1: inactive: -0.443.
The same measure for GGGAAUUGCCUCAGCUAAGTT against Men1: inactive: 1.18.
The same measure for “GGACCUGUGGAACCAUUCCTT against E430025L02Rik”: inactive: -0.0421; for GGCUAAGCUAUACCACCAUTT against Cckbr: inactive: -0.626.
For the sequence GCUGUGUUAGGAUUGUCCATT against Olfr553, the z-score was inactive: -0.418.
On to GGUCUAAUCAAUGUUUUGCTT against MGC67181, for which the z-score was inactive: 1.02.
The figure for UGUUGGUGGGCCUUAUAUUTT against Olfr1153 is inactive: 1.12.
Take CGGUGGUGUGAAGCCCAAUTT against Gm424: the z-score was inactive: -1.07.
The figure for “GGCCUUCCAUACUACAACUTT against A230042K10Rik” is inactive: -0.368; for CCAUUUCUUAGUGGGACUATT against Ogdh it is inactive: -0.867; for GCACUUGUGGAUCAAUACCTT against Efhd1 it is inactive: 0.871.
The same measure for “GGAAUUAAGAAGACAAUUCTT against 4921531G14Rik”: inactive: 0.229; for GGGUUAGCGCAUAAAGACATT against Fv4: inactive: 0.8; for “CGUAGGUUCUAACGAUUCCTT against C730034F03Rik”: inactive: 0.151.
The figure for GGAAGUAUUAAUGUACAACTT against Sc4mol is inactive: -0.685; for GCAACGCAACAGCAUUCCUTT against Dscr2 it is inactive: 0.31.
Consider GGUGGAAAAGCAAUUCCUUTT against Mcpt5, for which the z-score is inactive: -0.0363.
The same measure for CCAGGUUCUGACCACCUACTT against Htr3a: inactive: 0.237.
The same measure for CCUGAUAAACUCUAGUGUGTT against Six5: inactive: -1.16; for GCAUAUUACACAGCACUAGTT against Itgbl1: inactive: -0.316.
The same measure for “CCGAGAACCGAACUUACCATT against B930006L02Rik”: inactive: -0.372; for “CGUGCUAGUGACCAUUUACTT against 3732412D22Rik”: inactive: -0.014; for GCCUGUUUGGUAUUCUUCCTT against Olfr832: inactive: 0.964.
Regarding GCACCACUAAUCGAGUUGGTT against Pigf, the z-score was inactive: 0.527.
The same measure for GGACUCUGGAACAAGUCACTT against Slc2a8: inactive: 1.53; for “GGUUCCUGUGAAUUAUGUGTT against 1700054O13Rik”: inactive: 1.07.
The figure for GGUGGAAAGAUUAUCUUCATT against Dmc1h is inactive: -2.03; for GGAGGAAGACGAGUUCAUUTT against Rassf2 it is inactive: 0.183.
The same measure for GCGAUUUCUGGACAGCAAUTT against Cyp2r1: inactive: -0.447; for UGAUUAUUGACCUGUUAGUTT against Olfr1193: inactive: -0.949.
On to GGCCUGAAGGGAAAGAUUUTT against Rbbp4, for which the z-score was inactive: -0.677.
GGAGAAAAGAGGCUUCCAGTT against Lad1: the z-score was inactive: -1.06.
“GGUUAACACUGGACGUGGUTT against 5730409F24Rik”: the z-score was inactive: 1.22.
Take GUCUUCAACUCAGUUCAGUTT against Wap: the z-score is inactive: -0.295.
The figure for GGUUGACCAGAUUGAGAAATT against Sfrs2ip is inactive: -0.374.
Turning to GGAUGGUCAAACACGUCACTT against Pla2g2c, the z-score was inactive: 0.342.
For the sequence GGAGUUGCUGUACAACAAGTT against Ndufs8, the z-score was inactive: 2.08.
“GGUGAUGAUGUCCAGAAGUTT against 4932416A15”: the z-score is inactive: 0.59.
The figure for GGGACUGAUCGGUACCGAATT against Igsf8 is inactive: 1.09.
Turning to GCCUGUGGCUUAAACUUCATT against AI427515, the z-score is inactive: 0.325.
“CCUAGGUUUGAAGACUCCCTT against 2900006N09Rik”: the z-score was inactive: 1.03.
The figure for “GGAUGAUUACAGAUAUGAUTT against 2310043N13Rik” is inactive: 0.0508; for “GGCUCUCUGAGGAUUCGAATT against 4930544M13Rik” it is inactive: -0.0503; for “GGAUCCUGAAACCAUGAGCTT against E130306I01Rik” it is inactive: 0.928.
In the case of GGCUAAAUAUUACCACUGATT against Dyrk3, the z-score is inactive: -0.964.
With “GCAUGGUAUUUCAUAAAGCTT against 6530418L21Rik”, the z-score was inactive: 0.414.
With GGACUUUUCUGCUAUUUACTT against Kcnh2, the z-score is inactive: 0.361.
The figure for “GCAUUUAUGGAGUACUUACTT against 2810024B22Rik” is inactive: 1.1; for GGACAAAAGACAAAUACCGTT against Cdx2 it is inactive: -1.42.
Consider CCCGUUCGUGCAUGAGUUATT against AI505034, for which the z-score is inactive: 0.686.
The figure for “CCAUUGAUCCCAUGAUCUUTT against 1110037N09Rik” is inactive: 0.163; for CCGUGCAACAAAAACUGGATT against Tnpo1 it is inactive: 0.68; for “GGGCAUUGUUGUUUCUAUUTT against 2810489O06Rik” it is inactive: 0.685.
On to GGUUGGACAAAAAGAAUCUTT against Ifngr1, for which the z-score is inactive: 1.24.
The figure for GGUGUUGGAUUCCAAUCCCTT against Ube1dc1 is inactive: -0.00137; for CCUUGGACUAUGGCAAAAATT against Neurod6 it is inactive: -0.626; for CGCAUACUGUGGAAUAGUUTT against Spag4 it is inactive: 0.371.
The same measure for GGCUUUUAGUACUGAUAGUTT against Neu3: inactive: -0.265; for CCAUUAUAACUGUAUCUGATT against Gm609: inactive: 0.0458; for GGCCUUUUCAACUUGUGGGTT against Olfr1048: inactive: 0.715.
The figure for “GGCUUAGGAAUCUAGGACUTT against D830044D21Rik” is inactive: -2.24; for “GGUACAAUGAAAGUCUCACTT against A230103N10Rik” it is inactive: 0.873.
Consider CGAAAGGUCAAAUUAACAGTT against Serpinb5, for which the z-score is inactive: 0.304.
Regarding GGGAACAAAAUCCAUGACGTT against Tdo2, the z-score is inactive: -1.36.
The figure for CCGAAUCUCUCACGUGCCATT against Rtn4r is inactive: 1.21.
For the sequence GGUCUAGCUCACAUCACACTT against C2, the z-score is inactive: 2.31.
With “GCUGUCAAACUGCCUCAACTT against 1700020H15”, the z-score is inactive: -0.472.
The figure for “GGAACAUGGAGAAUGUCUATT against 4930465P12Rik” is inactive: -1.35; for “GCCAGUCACCAAUUCCAAATT against D3Ertd194e” it is inactive: -0.602.
